# Reference: PubChem BioAssay AID2685 (National Center for Advancing Translational Sciences (NCATS), 2010)
# Some of the results follow. Further columns of the screen follow, without active or inactive calls. The list favours compounds with an active or inconclusive main result. Potencies come from curve fits of mixed quality, noted in brackets.
# Assay: qHTS Assay for Lipid Storage Modulators in Drosophila S3 Cells;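 for cell number change: cells counted by Cell Tracker Red CMTPX staining in the red channel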
# Details: BODIPY lipid droplet fluorescence, 18-24 h; for cell number change: measured here: cell count max response, cells fed with added oleic acid
# Summary of the method: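 Laser-scanning cytometry quantifies lipid droplet accumulation (500–530 nm total intensity; droplet/cell object ratio) in oleic acid-fed (400 uM added) Drosophila S3 cells treated with a concentration series. 20 uM Triacsin C defined 100% inhibition.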
# [1] = measured here: cell number channel AC50, cells fed with added oleic acid
# [2] = measured here: lipid fluorescence (Fed channel) AC50, cells fed with added oleic acid
Structure (SMILES),cell number change [%],AC50 [1],AC50 [2]
COc1cc(/C=N/NC(=O)c2cccc(NC(=O)c3ccccc3)c2)ccc1O,-43.7,"16.4 µM [falling, partial curve, poor fit]",–
C=CCNC(=O)C1CC=CCC1C(=O)O (configuration not stated),-1.84,–,"3.26 µM [falling, full curve, poor fit]"
CCOc1ccc(NC2=NC(C(=O)NCc3ccccc3)CC(=O)N2)cc1 (configuration not stated),7.82,–,"0.651 µM [rising, single point]"
CCOc1ccccc1-n1c(SCC(=O)N2CCOCC2)nc2ccccc2c1=O,-1.32,–,"5.62 µM [rising, single point]"
Cn1c(SCc2ccccc2Cl)nc(C(F)(F)F)cc1=O,31.6,–,–
O=C1CC(C(=O)NC2CCCCC2)C2(CCCCC2)O1 (configuration not stated),2.85,–,"0.0184 µM [rising, full curve, poor fit]"
COc1ccc(CN2C(=O)c3cccnc3C2=O)cc1S(=O)(=O)N1CCCCC1C (configuration not stated),-4.2,"3.66 µM [falling, single point]","2.06 µM [falling, partial curve]"
N=c1n(Cc2ccc(Cl)cc2)c2ccccc2n1CC(O)COc1ccccc1 (configuration not stated),-55.1,"29.1 µM [falling, partial curve, poor fit]","3.26 µM [falling, partial curve, poor fit]"
O=C(C1CCCN(S(=O)(=O)c2cccc3nsnc23)C1)N1CCN(c2ccccn2)CC1 (configuration not stated),–,"3.66 µM [rising, partial curve, poor fit]","2.91 µM [rising, partial curve]"
CC(C)c1ccc(NC(=O)COC(=O)c2cc(=O)[nH]c3ccccc23)cc1,4.95,–,"2.31 µM [rising, full curve, poor fit]"
O=C(NC(=S)NCc1ccccc1)C1CC1,-20.8,–,"29.1 µM [falling, single point]"
Cc1ccnc(N2CCC(C(=O)NNC(=O)COc3cccc4ccccc34)CC2)n1,47.7,"29.1 µM [rising, single point]","18.4 µM [rising, partial curve, poor fit]"
Cc1ccc(S(=O)(=O)NCC(=O)N2CCCC2)cc1,1.1,–,"29.1 µM [falling, single point]"
O=C(O)c1cc(S(=O)(=O)Nc2cccc3ccccc23)c(Cl)cc1Cl,8.75,–,–
CCOC(=O)C1CCCN(CC(=O)Nc2c(C(=O)OC)[nH]c3ccc(Br)cc23)C1 (configuration not stated),-30.4,"8.2 µM [falling, partial curve, poor fit]","23.1 µM [falling, single point]"

# 3 entries out of the list, arranged by SMILES length, falling:
Structure (SMILES),cell number change [%],AC50 [1],AC50 [2]
CC(C)c1ccc(NC(=O)COC(=O)c2cc(=O)[nH]c3ccccc23)cc1,4.95,–,"2.31 µM [rising, full curve, poor fit]"
CCOc1ccc(NC2=NC(C(=O)NCc3ccccc3)CC(=O)N2)cc1 (configuration not stated),7.82,–,"0.651 µM [rising, single point]"
Cn1c(SCc2ccccc2Cl)nc(C(F)(F)F)cc1=O,31.6,–,–
